# According to the supplement of paper PMC3334620:
# Over roughly 33,000 sequences, “E-score (-0.5 to 0.5)” has its median near -0.0014; the highest 2% begin near 0.25. This is one part of the list.
# Target: T1, Cad1 (UniProt P24813)
# T1 sequence: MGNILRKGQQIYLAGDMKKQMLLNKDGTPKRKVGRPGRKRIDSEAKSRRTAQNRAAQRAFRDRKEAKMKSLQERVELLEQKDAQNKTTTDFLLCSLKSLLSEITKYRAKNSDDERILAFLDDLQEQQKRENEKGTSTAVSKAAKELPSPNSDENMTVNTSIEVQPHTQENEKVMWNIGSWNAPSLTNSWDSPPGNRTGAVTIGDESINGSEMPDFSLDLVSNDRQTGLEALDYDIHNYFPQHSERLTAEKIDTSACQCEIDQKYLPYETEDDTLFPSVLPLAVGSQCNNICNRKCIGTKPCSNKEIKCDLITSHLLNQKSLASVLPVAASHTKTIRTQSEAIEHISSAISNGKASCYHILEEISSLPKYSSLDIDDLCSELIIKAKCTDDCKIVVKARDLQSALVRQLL
# Assay: PBM E-score (8-mer binding enrichment) (E-score (-0.5 to 0.5)); higher = stronger / more preferred TF binding
# Conditions: protein concentration: 100 nM; construct: GST-full length
# Outline: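 Detection of bound protein used fluorescent anti-GST, with scans normalised by masliner. The proteins were GST-tagged yeast transcription factors applied at about 100-200 nM to universal all-10-mer Agilent arrays made double-stranded by primer extension. Each ungapped eight-base word, pooled with its reverse complement, was scored with an E-score from the Universal PBM Analysis Suite.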
row,Sequence,PBM E-score
1,GGGGACTA,-0.264
2,ACCTGGAC,-0.0874
3,AGTAAAGA,0.167
4,AATTTATC,0.293
5,CAAGACAA,0.211
6,AAAACTAT,0.0232
7,CTAGATAC,0.139
8,AATCGGAG,0.0523
9,CTAGGTCC,0.0251
10,AGCCACCG,-0.0702
11,TGCTCCCA,-0.0911
12,GGGTGCCA,-0.0575
13,TTGTACAA,0.234
14,AGGTAAAA,-0.0024
15,AATCTTTG,0.0579
16,GCAGCTGA,0.0932
17,CTACAAAA,-0.0777
18,GCGACAGA,0.0524
19,GAACACCC,-0.101
20,ACTGGGAG,-0.204
21,CGGCGAGC,0.0619
22,GCGATAAA,0.191
23,AACGCGCT,0.0463
24,GCAAATTA,0.0483
25,CCACTGGC,-0.0488

row,Sequence,PBM E-score
1,AGGCACTG,-0.0317
2,CGAAGACA,-0.171
3,CCTGCAAG,-0.092
4,TGACGGAA,0.0247
5,AGAGCCCT,-0.122
6,TACTCTAA,0.0181
7,AGGGGTCA,-0.304
8,CATTCGTA,0.0457
9,ACATCATG,-0.124
10,GCTGACAC,0.247
11,AAGTTGCC,-0.0811
12,AAGGCTCA,-0.00772
13,ATGGCCCG,0.0172
14,AATAGTAA,0.203
15,AGCGGGGG,-0.381
16,CAGGCGAA,-0.133
17,ACTACACG,0.00852
18,ATCTTTTG,-0.0581
19,AGTTCTTC,0.0313
20,CGCTTCAA,0.00217
21,CCTTTCGA,-0.163
22,GCGCTTTA,0.0211
23,TCGGACCA,0.0901
24,CTATGACC,-0.0408
25,AACTATCG,0.046

row,Sequence,PBM E-score
1,GCGAGATA,0.156
2,ACGAGAGC,-0.191
3,ACTAGCTA,0.055
4,AGGGCTAA,0.0733
5,CACGGCTA,0.14
6,CTGGCCTA,-0.107
7,GAGCAACA,0.00421
8,AGTTACTA,0.109
9,CGATCAAG,-0.0491
10,GACTAGGA,-0.0312
11,ATACCCGG,-0.0506
12,GCATAACC,-0.0625
13,ATGGAAAC,0.0338
14,CACTGGGG,-0.237
15,CAGACAAA,0.212
16,GTTTGTAA,0.137
17,CCCAGATC,-0.145
18,CAAGAGTC,0.00519
19,ACATTCTG,-0.0173
20,AACCGCCC,-0.0466
21,CACAATGC,-0.119
22,GCGTCGTA,0.0808
23,CCTGCAGA,-0.0447
24,GCAGTGGA,0.134
25,ACACTTAG,0.0262

row,Sequence,PBM E-score
1,AGCGGGAC,-0.023
2,GATTACGA,0.318
3,GAAAGCAC,0.0219
4,ATGAATCG,0.00384
5,AAGGCTAA,0.0725
6,GATGGAGC,-0.271
7,GACTGCCC,-0.108
8,GACAGGGA,0.0209
9,CGAGTTAG,0.00576
10,CCCGTAGG,-0.155
11,AAAGCGTT,0.0459
12,ATAGCCGG,0.0742
13,CCTCCATA,-0.254
14,GGCACCCA,-0.173
15,CTACACAA,0.1
16,CGCTCCCA,-0.0429
17,CCTAACTA,0.123
18,GTACCTAC,-0.114
19,CTCACCGA,-0.12
20,ACCTGTTA,-0.234
21,ACTTTTGC,-0.0594
22,AAGTTGCT,0.0232
23,CTAGCGTA,-0.176
24,AGACTAGC,-0.196
25,ACCCGCCG,0.182

# Seven entries from above, set out differently:
row | Sequence | PBM E-score
3 | GAAAGCAC | 0.0219
4 | ATGAATCG | 0.00384
5 | AAGGCTAA | 0.0725
6 | GATGGAGC | -0.271
7 | GACTGCCC | -0.108
8 | GACAGGGA | 0.0209
9 | CGAGTTAG | 0.00576

# Reformatted bar-delimited: entries from further up
row | Sequence | PBM E-score
1 | AGCGGGAC | -0.023
2 | GATTACGA | 0.318

# (cont.)

row,Sequence,PBM E-score
1,GCTAAGGA,-0.141
2,ACAGGACA,0.154
3,CGCACTGA,0.00933
4,GGACACTA,0.0742
5,AGTATCGA,0.22
6,ACACCCAA,0.124
7,AGGCATTG,-0.0293
8,TACGAATA,0.207
9,CGACAGCG,-0.19
10,CTGACGGA,-0.0188
11,ACACCAAG,-0.0199
12,AATCGAGC,-0.00781
13,CACGGCGA,-0.122
14,CCTTCACA,-0.00607
15,AACTTCTG,-0.0167
16,CCGCGTAC,0.128
17,ACCGACGC,-0.158
18,CCAAGGGA,-0.142
19,CCCACACC,-0.0107
20,ACTACTCC,-0.0256
21,GATGTATA,0.0792
22,TCCTGGAA,-0.164
23,AGCAGCAT,-0.0594
24,CGAGCTGA,0.197
25,AGGTGACC,-0.198

row,Sequence,PBM E-score
1,GGTGTTCA,-0.0312
2,ACAGCTCG,0.0849
3,GACCTTCA,-0.0815
4,CGACTGCC,-0.0904
5,ATTAAACG,0.12
6,CTAGTAAA,0.0669
7,ACAGGCGA,-0.191
8,AAAGTCGT,-0.0468
9,AAGCGGCT,0.126
10,ATCCCAAC,-0.116
11,CAAAACTG,0.114
12,CTATCGTC,0.0408
13,ACGAAAAC,0.259
14,CTGGCTTC,-0.13
15,TAGCGCTA,0.089
16,ATCGGTAC,-0.098
17,ATCATAGA,0.146
18,AAGGACGT,0.0907
19,TATGGGGA,0.0948
20,ACATGCCG,0.11
21,CGAAGGCA,-0.155
22,ATGTTGGC,0.0612
23,AAGTGACC,-0.186
24,ATTTCAGG,0.0368
25,GCCATTGA,0.0445

row,Sequence,PBM E-score
1,CCAACTTA,-0.0068
2,GAAGCTGC,-0.033
3,CCTTTGAC,-0.185
4,CTCTTGGC,-0.181
5,CGCGTCAC,0.0475
6,ATGTCACA,0.306
7,TGATGGAA,0.0626
8,AATGTGAG,0.0772
9,GTTTAAAA,0.125
10,AAGACTAA,-0.0994
11,TCAGCCAA,0.0189
12,ATCTCGCA,0.0847
13,AGAATGCG,0.0274
14,AGCAGCCG,0.0809
15,CGGTTGAC,-0.106
16,AGATTCTG,-0.0272
17,GATTGCGA,0.141
18,CATATCAG,-0.00093
19,CAGACCCA,-0.175
20,CTGCTAGA,-0.0427
21,CGTAAAGA,-0.0421
22,CCCGGCCG,-0.0863
